The values below come from US20150232507A1 (ERA BIOTECH S A, published 2015).

This test concerns the target T1, DE^C: DnaE^C-[C-extein]linker-Trx-EFRSHHHHHH fusion protein (Npu DnaE).
T1 chain: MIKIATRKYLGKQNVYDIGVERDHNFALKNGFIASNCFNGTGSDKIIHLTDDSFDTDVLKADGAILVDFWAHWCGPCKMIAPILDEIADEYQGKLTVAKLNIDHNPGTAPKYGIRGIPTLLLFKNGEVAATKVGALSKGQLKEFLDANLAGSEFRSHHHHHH
Kind of test: cell-based or functional assay.

B1: DE^N: StreptagII-gpD-linker-DnaE^N fusion protein (Npu DnaE) (other)
chain: MASWSHPQFEKASKETFTHYQPQGNSDPAHTATAPGGLSAKAPAMTPLMLDTSSRKLVAWDGTTDGAAVGILAVAADQTSTTLTFYKSGTFRYEDVLWPEAASDETKKRTAFAGTAISIVGSCLSYETEILTVEYGLLPIGKIVEKRIECTVYSVDNNGNIYTQPVAQWHDRGEQEVFEYCLEDGSLIRATKDHKFMTVDGQMLPIDEIFERELDLMRVDNLPN
For B1, the “trans-splicing first order rate constant k, 25 °C” value amounted to 0.0034 s⁻¹ and the “trans-splicing t1/2, 25 °C” value was found to be 180 s.
